From PubChem BioAssay AID504834 (National Center for Advancing Translational Sciences (NCATS), 2011)
In all, about 320,000 compounds went through this assay and about 22,000 (6.9%) were called active. The inconclusive results got no clear call from the source; some entries with a clear call stand among them for comparison. Calls come from the whole dose curve; as a rule, active = well fitted inhibition curve with a large enough effect; inconclusive = small, poorly fitted or top-dose-only effect, or another doubt; inactive = no such curve, though single readings can be large or run the other way. Where the call is inconclusive, the potency comes from a doubtful curve fit.

Assay: Primary qHTS for delayed death inhibitors of the malarial parasite plastid, 96 hour incubation
Conditions: P. falciparum luciferase reporter growth; series mostly up to 28.7 µM
In short: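 Erythrocytes infected with luciferase-expressing P. falciparum were dispensed at 2% hematocrit and 0.05% parasitemia (final), then incubated with compounds 96 hours at 37 C in 5% CO2. Luminescence after detection reagent addition reported growth.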
Potency is the fitted concentration of half-maximal effect.

Row | Structure (SMILES) | Potency
1 | COc1cccc(CNC(=O)CCC2CCCN(C(=O)CCn3cncn3)C2)c1 (centres undefined) | inconclusive: 18.5 µM [inhibitor, single point]
2 | O=C(C1CCN(C2CCN(C/C(Cl)=C/c3ccccc3)CC2)CC1)N1CCOCC1 | active: 10.4 µM
3 | CC1CCC/C(=C(\C#N)c2nc(-c3cc4ccccc4oc3=O)cs2)C1 (centres undefined) | active: 6.57 µM
4 | CCCOC(=O)CSc1nc(N)c(C#N)c(CC)c1C#N | inconclusive: 18.5 µM [inhibitor, single point]
5 | FC(F)(F)COc1nc(N/N=C/c2cccnc2)nc(N2CCCCC2c2ccccn2)n1 (centres undefined) | active: 9.28 µM
6 | CCOC(=O)CSc1nnc(-c2cccs2)n1-c1ccccc1 | inconclusive: 18.5 µM [inhibitor, single point]
7 | O=C(O)c1ccc(-n2c(O)c(/C=C3\C=Nc4ccccc43)c(=O)[nH]c2=O)cc1 | inconclusive: 0.165 µM [inhibitor, full curve, poor fit]
8 | O=S(=O)(c1ccccc1)N1CCN(c2nc(-c3cccs3)nc3ccccc23)CC1 | inconclusive: 4.15 µM [inhibitor, partial curve, poor fit]
9 | COc1ccc(N=C2NC(=O)/C(=C/c3ccc(O)c(OC)c3)S2)cc1 | inconclusive: 3.7 µM [inhibitor, partial curve, poor fit]
10 | CCC(=O)Nc1cc(NC(=O)CSc2ncc(-c3ccc(F)cc3)n2Cc2ccco2)ccc1C | inactive
11 | COc1ccc(Cl)cc1C(=O)CSc1nnnn1C1CCCC1 | inconclusive: 0.147 µM [inhibitor, full curve, poor fit]
12 | CCCc1nnc(NC(=O)CCC(=O)N2CCN(S(=O)(=O)c3ccc(OC)cc3)CC2)s1 | inconclusive: 4.65 µM [inhibitor, partial curve]
13 | N#Cc1ccccc1OCC(=O)NCC(c1ccc(F)cc1)N1CCOCC1 (centres undefined) | inactive
14 | COc1ccccc1-c1c(C)oc2c(CN3CCCC(C)C3)c(O)ccc2c1=O (centres undefined) | active: 10.4 µM
15 | CN(C)CCCNc1nc(-c2ccc(Cl)cc2)nc2ccccc12 | inactive
16 | CCCCC(CC)CNC(=O)c1[nH]c(C)c(C(C)=O)c1C (centres undefined) | inconclusive: 1.65 µM [inhibitor, single point]
17 | Cc1ccccc1NC(=O)Cn1cnc2c(oc3ccccc32)c1=O | inconclusive: 0.0023 µM [inhibitor, full curve, poor fit]
18 | Oc1ccc(/C=N/Nc2cc(N3CCCC3)nc(N3CCCC3)n2)cc1O | inconclusive: 8.28 µM [inhibitor, partial curve, poor fit]
19 | CC1CCCCN1S(=O)(=O)c1ccc(C(=O)Nc2ccccc2-c2nc3ccccc3s2)cc1 (centres undefined) | inactive
20 | COc1ccccc1C(=O)NCc1ccc(-c2nc3ccccc3s2)cc1 | inactive
21 | CCCNC(=O)NCCc1c(C)[nH]c2ccccc12 | inconclusive: 11.7 µM [inhibitor, partial curve, poor fit]
22 | O=C(Nc1cccc([N+](=O)[O-])c1)c1ccc2ccccc2c1O | inactive
23 | N#Cc1ccccc1CN1C(=O)NC(Cc2c[nH]c3ccccc23)C1=O (centres undefined) | inactive

Part of the list above in order of heavy-atom count, high to low:
Row | Structure (SMILES) | Potency
8 | O=S(=O)(c1ccccc1)N1CCN(c2nc(-c3cccs3)nc3ccccc23)CC1 | inconclusive: 4.15 µM [inhibitor, partial curve, poor fit]
13 | N#Cc1ccccc1OCC(=O)NCC(c1ccc(F)cc1)N1CCOCC1 (centres undefined) | inactive
23 | N#Cc1ccccc1CN1C(=O)NC(Cc2c[nH]c3ccccc23)C1=O (centres undefined) | inactive
9 | COc1ccc(N=C2NC(=O)/C(=C/c3ccc(O)c(OC)c3)S2)cc1 | inconclusive: 3.7 µM [inhibitor, partial curve, poor fit]

Additional structures follow:

Row | Structure (SMILES) | Potency
24 | COc1cccc(OC)c1C(=O)OCC(=O)N(C)c1ccccc1 | inconclusive: 0.117 µM [inhibitor, full curve, poor fit]
25 | O=S(=O)(c1ccc(F)cc1)N1CCN(C(=S)NCc2ccccc2)CC1 | inconclusive: 0.586 µM [inhibitor, full curve, poor fit]
26 | CC(C)NC(=O)CSc1nnc(CNC(=O)OC(C)(C)C)n1C | inactive
27 | COCc1cc(C)nc(SCc2ccc(Cl)cc2)c1C#N | inactive
28 | CC(C)CN=Cc1c(O)c([N+](=O)[O-])cc2oc3c(c12)CCCC3 | inactive
29 | Cn1/c(=N\NC(=O)c2ccccc2Cl)sc2ccccc21 | inconclusive: 7.38 µM [inhibitor, single point]
30 | CC(=O)N1Cc2cc([N+](=O)[O-])ccc2Oc2ccccc21 | inconclusive: 0.465 µM [inhibitor, full curve, poor fit]
31 | CCOc1ccc2nc(SC(CC)C(=O)Nc3cc(C)on3)sc2c1 (centres undefined) | inconclusive: 1.47 µM [inhibitor, partial curve, poor fit]
32 | Cc1ccccc1C(=O)N1CCC(C(=O)OCc2nc(N)nc(Nc3ccccc3)n2)CC1 | active: 13.1 µM
33 | CCOC(=O)c1c(S(=O)(=O)NCC(=O)Nc2ccc(F)cc2)c(C)n(C)c1C | inconclusive: 14.7 µM [inhibitor, partial curve, poor fit]
34 | CC(C(=O)O)C1SC(=O)NC1=O (centres undefined) | inactive
35 | COc1ccc(C2CC(c3ccc4ccccc4c3)=NN2C(=O)CNC2CCCCC2)cc1 (centres undefined) | inconclusive: 10.4 µM [inhibitor, partial curve]
36 | COc1ccc(CCNC(=O)c2cccc(S(=O)(=O)N3CCCC3)c2)cc1OC | inconclusive: 18.5 µM [inhibitor, single point]
37 | Cc1cc([N+](=O)[O-])nn1CC(=O)N/N=C/c1ccc(O)cc1O | inconclusive: 18.5 µM [inhibitor, single point]
38 | c1ccc(COc2ccc(OCCCCN3CCCCC3)cc2)cc1 | inconclusive: 18.5 µM [inhibitor, single point]
39 | N#C/C(=C\c1ccc([N+](=O)[O-])cc1)C(=O)Nc1ccccc1O | inconclusive: 18.5 µM [inhibitor, single point]
40 | O=C(CSc1nc(CCC2CCCC2)nc2ccccc12)NCc1ccc2c(c1)OCO2 | inconclusive: 18.5 µM [inhibitor, single point]
41 | O=c1c(C=Nc2ccc(Oc3ccccc3)cc2)c[nH]n1-c1cccc(Cl)n1 | inactive
42 | CN1CCN(C(=O)/C(=C/c2ccco2)NC(=O)c2ccccc2)CC1 | inconclusive: 18.5 µM [inhibitor, single point]
43 | O=C(Nc1cc(C(F)(F)F)cc(C(F)(F)F)c1)Nc1cnn(-c2ccc([N+](=O)[O-])cc2)c1C(F)(F)F | inconclusive: 2.33 µM [inhibitor, full curve, poor fit]
44 | O=C(NC1CCCC1)c1ccc(CS(=O)(=O)c2ccc(Cl)cc2)o1 | inconclusive: 18.5 µM [inhibitor, single point]
45 | Clc1ccc2oc(-c3ccccn3)nc2c1 | inconclusive: 9.28 µM [inhibitor, partial curve, poor fit]
46 | O=C(CCl)Nc1ccccc1C(=O)c1ccccc1 | inconclusive: 5.86 µM [inhibitor, partial curve, poor fit]

Row | Structure (SMILES) | Potency
47 | Cc1ccc(N2C(=O)NC(=O)/C(=C\c3ccc(N4CCOCC4)cc3)C2=O)cc1 | inactive
48 | CN(C)S(=O)(=O)Oc1cc(Cl)ccc1C(=O)Nc1ccc(F)cc1F | inconclusive: 18.5 µM [inhibitor, partial curve, poor fit]
49 | CCN(CC)c1ccc(NC(=O)c2ccccc2F)cc1S(=O)(=O)Nc1ccccc1OC | active: 10.4 µM
50 | CC1CC(OCC(O)C[N+]2(C)CCOCC2)CC(C)(C)C1 (centres undefined) | inconclusive: 18.5 µM [inhibitor, single point]
51 | O=S(=O)(Nc1nc(SCc2ccc(Cl)cc2)n[nH]1)c1ccccc1 | inactive
52 | C[C@H](O)Cc1cn(-c2cc3cc(C#Cc4ccsc4)ccc3oc2=O)nn1 | inactive
53 | Cc1cccc2nc(-c3ccccc3)nc(N3CCC(O)(c4ccc(Cl)cc4)CC3)c12 | inconclusive: 14.7 µM [inhibitor, single point]
54 | O=C(CSc1nc2[nH]ncc2c(=O)n1-c1ccccc1Br)NCc1ccccc1Cl | inconclusive: 1.85 µM [inhibitor, partial curve, poor fit]
55 | O=C(Nc1nccs1)c1cccc(S(=O)(=O)N2CCCC2)c1 | inactive
56 | CCOC(=O)NC(=O)CSc1cc(C)c2cc(C)cc(C)c2n1 | inconclusive: 18.5 µM [inhibitor, single point]
57 | O=C(CSc1nnc(C2CC2)n1-c1ccccc1)NCCc1ccccc1 | inconclusive: 9.28 µM [inhibitor, partial curve, poor fit]
58 | O=C(c1ccc(NC2=NC3CS(=O)(=O)CC3S2)cc1)N1CCN(Cc2ccccc2)CC1 (centres undefined) | inconclusive: 0.262 µM [inhibitor, full curve]
59 | CCN(C(=O)Cn1c([N+](=O)[O-])cnc1C)c1ccccc1 | inconclusive: 18.5 µM [inhibitor, single point]
60 | CCCN(CC(=O)Nc1ccccc1OC)C(=O)c1ccc(S(=O)(=O)Nc2ccccc2)cc1 | inconclusive: 16.5 µM [inhibitor, single point]
61 | Cc1ccc(CNC(=O)CSc2ccsc2[N+](=O)[O-])cc1 | inconclusive: 0.0033 µM [inhibitor, full curve, poor fit]
62 | Cc1oc2cc3oc(=O)c(CCC(=O)NCc4ccccn4)c(C)c3cc2c1C | inconclusive: 18.5 µM [inhibitor, single point]
63 | CC(C)c1nc2oc3c(NCc4cccnc4)ncnc3c2c2c1CCC2 | inactive
64 | CCCCN1C(=O)Cc2c1nc(N)c1c(N)nc(N(CCC)CCC)c(C#N)c21 | active: 4.15 µM
65 | COC(=O)Cc1ccc(NC(=S)N2CCCCC2C)cc1 (centres undefined) | inconclusive: 10.4 µM [inhibitor, partial curve]
66 | CCOc1ccccc1NC(=O)COn1nnc2ccc(Cl)cc21 | inactive
67 | COc1ccc(C(CCN2CCOCC2)c2c(O)cc(OC)cc2OC)cc1 (centres undefined) | active: 3.29 µM
68 | CCOC(=O)c1c(C)sc2c1N(C(=O)CCl)c1cc(Cl)ccc1S2 | active: 14.7 µM
69 | c1cc2c3c(cccc3c1)NC1(CCC3(CC1)Nc1cccc4cccc(c14)N3)N2 | active: 6.57 µM
